Measurements reported in PubChem BioAssay AID1053208 (Peter MacCallum Cancer Centre, 2014).

- Assay: 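Synthetic lethal interactions between gene loss and doxorubicin in osteosarcoma cells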 (primary screen)
- Cells: mouse osteosarcoma cells, early-passage culture from an engineered mouse model of fibroblastic bone tumour
- Reagent: siRNA pool against mouse genes, 40 nM
- Time to read-out: about 120 h (48 h before drug, then 72 h with drug)
- Challenge: doxorubicin 100 nM for 72 h, roughly 30-40% inhibitory dose
- Measured: 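Luminescent ATP signal taken as viability with or without 100 nM doxorubicin for 72 h; mean of two wells set against non-targeting siRNA and turned into robust z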
- Reading the numbers: viability z-score with doxorubicin: higher = more viable cells under doxorubicin; viability z-score without drug: higher = more viable cells with knock-down alone
- Hit rule: 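a pool counts as active when its viability z-score with doxorubicin is -2 or below and its z-score without drug lies between -2 and 2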
In all, the deposit lists about 17,000 reagents; shown is an unselected part. 788 of them (4.7%) were called active. 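Calls rest on z-score classes alone; an extra cut-off of viability at most 70% of control was not applied to them.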 Unmarked entries are inactive. Further read-outs or replicates are left out here. No sequences are given here.

{"gene knocked down": "Dph1", "combined z-score class": "no change with or without drug", "viability z-score with doxorubicin": 1.12, "viability z-score without drug": -0.51}
{"gene knocked down": "Yipf5", "combined z-score class": "no change with or without drug", "viability z-score with doxorubicin": 0.22, "viability z-score without drug": -0.17}
{"gene knocked down": "S100a14", "combined z-score class": "no change with or without drug", "viability z-score with doxorubicin": -0.56, "viability z-score without drug": 0.34}
{"gene knocked down": "Tnnt3", "combined z-score class": "no change with or without drug", "viability z-score with doxorubicin": 0, "viability z-score without drug": 0.17}
{"gene knocked down": "Akr1c21", "combined z-score class": "no change with or without drug", "viability z-score with doxorubicin": -0.45, "viability z-score without drug": 0.17}
{"gene knocked down": "Hipk4", "combined z-score class": "no change with or without drug", "viability z-score with doxorubicin": 0.45, "viability z-score without drug": 0.17}
{"gene knocked down": "Hykk", "combined z-score class": "no change with or without drug", "viability z-score with doxorubicin": 0.22, "viability z-score without drug": 0}
{"gene knocked down": "Mtfr1l", "combined z-score class": "no change with or without drug", "viability z-score with doxorubicin": 1.24, "viability z-score without drug": 1.52}
{"gene knocked down": "Jph3", "combined z-score class": "no change with or without drug", "viability z-score with doxorubicin": -0.11, "viability z-score without drug": 0.17}
{"gene knocked down": "Ppat", "combined z-score class": "no change with or without drug", "viability z-score with doxorubicin": 0.45, "viability z-score without drug": -0.34}
{"gene knocked down": "Pcsk1", "combined z-score class": "no change with or without drug", "viability z-score with doxorubicin": -0.67, "viability z-score without drug": 0.34}
{"gene knocked down": "Kdm1a", "combined z-score class": "no change with or without drug", "viability z-score with doxorubicin": 0.9, "viability z-score without drug": 0.84}
{"gene knocked down": "Galns", "combined z-score class": "no change with or without drug", "viability z-score with doxorubicin": -1.24, "viability z-score without drug": -1.52}
{"gene knocked down": "Evc2", "combined z-score class": "no change with or without drug", "viability z-score with doxorubicin": 0.9, "viability z-score without drug": -0.51}
{"gene knocked down": "Fcrla", "combined z-score class": "no change with or without drug", "viability z-score with doxorubicin": 0.56, "viability z-score without drug": 0}
{"gene knocked down": "Zfp90", "combined z-score class": "no change with or without drug", "viability z-score with doxorubicin": 1.24, "viability z-score without drug": 0.34}
{"gene knocked down": "Skic8", "combined z-score class": "no change with or without drug", "viability z-score with doxorubicin": 0, "viability z-score without drug": 0.51}
{"gene knocked down": "Ppp4r2", "combined z-score class": "high cell count with doxorubicin only", "viability z-score with doxorubicin": 2.14, "viability z-score without drug": 1.52}
{"gene knocked down": "Rlf", "combined z-score class": "no change with or without drug", "viability z-score with doxorubicin": 0.34, "viability z-score without drug": 0}
